Source: article PMC4335056
These are yes or no findings as the source states them, for the method shown. Binding seen in cells or lysates may run through a third protein. Here binding means that the protein was enriched with, or labelled near, the bait; the list need not be complete. Tags and fused reporters may be left off the sequences shown.

Sequences of proteins named here, by UniProt entry; tags and fusion partners are left off. Residues count along the entry.
UniProt O00411, residues 42-1230: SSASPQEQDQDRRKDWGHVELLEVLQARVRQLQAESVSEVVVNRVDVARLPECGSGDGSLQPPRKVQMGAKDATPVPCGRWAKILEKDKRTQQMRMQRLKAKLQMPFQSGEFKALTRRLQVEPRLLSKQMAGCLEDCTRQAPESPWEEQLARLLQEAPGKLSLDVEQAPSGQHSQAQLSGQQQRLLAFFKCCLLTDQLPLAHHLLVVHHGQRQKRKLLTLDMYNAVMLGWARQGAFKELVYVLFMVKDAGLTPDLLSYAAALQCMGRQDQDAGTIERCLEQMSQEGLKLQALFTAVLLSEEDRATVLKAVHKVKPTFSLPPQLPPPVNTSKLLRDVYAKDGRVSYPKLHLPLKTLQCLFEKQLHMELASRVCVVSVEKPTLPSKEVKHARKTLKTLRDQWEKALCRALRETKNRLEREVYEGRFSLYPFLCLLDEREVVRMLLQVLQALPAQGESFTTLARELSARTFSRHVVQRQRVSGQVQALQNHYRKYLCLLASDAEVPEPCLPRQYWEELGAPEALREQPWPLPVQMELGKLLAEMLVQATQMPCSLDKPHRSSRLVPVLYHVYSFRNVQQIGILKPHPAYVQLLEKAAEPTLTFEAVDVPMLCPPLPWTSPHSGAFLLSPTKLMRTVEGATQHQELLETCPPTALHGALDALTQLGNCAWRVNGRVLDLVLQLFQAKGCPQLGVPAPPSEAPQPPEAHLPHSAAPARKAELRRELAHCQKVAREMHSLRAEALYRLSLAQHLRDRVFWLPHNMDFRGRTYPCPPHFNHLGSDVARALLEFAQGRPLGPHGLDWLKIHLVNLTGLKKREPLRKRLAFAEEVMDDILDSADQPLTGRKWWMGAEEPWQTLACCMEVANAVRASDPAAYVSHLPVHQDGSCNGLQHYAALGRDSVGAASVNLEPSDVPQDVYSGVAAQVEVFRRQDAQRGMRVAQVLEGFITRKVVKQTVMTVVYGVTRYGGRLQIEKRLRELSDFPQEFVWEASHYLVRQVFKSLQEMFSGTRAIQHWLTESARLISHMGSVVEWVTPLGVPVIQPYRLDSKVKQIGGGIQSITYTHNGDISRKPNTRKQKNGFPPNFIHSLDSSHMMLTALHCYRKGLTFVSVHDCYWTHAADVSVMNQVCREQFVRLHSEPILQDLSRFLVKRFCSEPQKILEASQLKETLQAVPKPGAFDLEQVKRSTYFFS

T1: TwinkleFLAG (mtDNA helicase Twinkle with a FLAG tag at its C-terminus) (UniProt Q96RR1)
T1 sequence: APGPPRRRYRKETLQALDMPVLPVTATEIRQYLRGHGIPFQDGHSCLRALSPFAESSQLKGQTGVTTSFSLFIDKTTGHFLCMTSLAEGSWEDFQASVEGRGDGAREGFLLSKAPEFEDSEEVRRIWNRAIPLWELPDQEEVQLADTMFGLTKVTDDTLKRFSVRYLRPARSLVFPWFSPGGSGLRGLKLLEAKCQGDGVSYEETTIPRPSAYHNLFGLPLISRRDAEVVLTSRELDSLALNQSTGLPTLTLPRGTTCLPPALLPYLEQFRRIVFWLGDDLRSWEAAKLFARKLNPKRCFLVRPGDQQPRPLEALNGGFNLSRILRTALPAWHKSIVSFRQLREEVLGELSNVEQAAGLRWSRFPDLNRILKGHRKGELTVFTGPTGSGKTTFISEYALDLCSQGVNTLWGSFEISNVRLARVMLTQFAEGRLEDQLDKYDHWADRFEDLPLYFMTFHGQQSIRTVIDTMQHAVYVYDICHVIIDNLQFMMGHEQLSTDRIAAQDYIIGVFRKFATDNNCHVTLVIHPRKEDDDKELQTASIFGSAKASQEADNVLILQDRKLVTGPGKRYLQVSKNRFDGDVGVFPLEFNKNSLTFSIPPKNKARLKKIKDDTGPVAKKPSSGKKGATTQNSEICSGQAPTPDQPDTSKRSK

T2: TwinkleFLAG (mtDNA helicase Twinkle with a FLAG tag at its C-terminus), Q96RR1
T2 chain: T1 sequence

B1: mitochondrial transcription factor A (TFAM) (protein, UniProt Q00059 43-246)
chain: SSVLASCPKKPVSSYLRFSKEQLPIFKAQNPDAKTTELIRRIAQRWRELPDSKKKIYQDAYRAEWQVYKEEISRFKEQLTPSQIMSLEKEIMDKHLKRKAMTKKKELTLLGKPKRPRSAYNVYVAERFQEAKGDSPQEKLKTVKENWKNLSDSEKELYIQHAKEDETRYHNEMKSWEEQMIEVGRKDLLRRTIKKQRKYGAEEC
B2: POLG1 (Polymerase gamma), P54098 1-1239 (enzyme)
chain: MSRLLWRKVAGATVGPGPVPAPGRWVSSSVPASDPSDGQRRRQQQQQQQQQQQQQPQQPQVLSSEGGQLRHNPLDIQMLSRGLHEQIFGQGGEMPGEAAVRRSVEHLQKHGLWGQPAVPLPDVELRLPPLYGDNLDQHFRLLAQKQSLPYLEAANLLLQAQLPPKPPAWAWAEGWTRYGPEGEAVPVAIPEERALVFDVEVCLAEGTCPTLAVAISPSAWYSWCSQRLVEERYSWTSQLSPADLIPLEVPTGASSPTQRDWQEQLVVGHNVSFDRAHIREQYLIQGSRMRFLDTMSMHMAISGLSSFQRSLWIAAKQGKHKVQPPTKQGQKSQRKARRGPAISSWDWLDISSVNSLAEVHRLYVGGPPLEKEPRELFVKGTMKDIRENFQDLMQYCAQDVWATHEVFQQQLPLFLERCPHPVTLAGMLEMGVSYLPVNQNWERYLAEAQGTYEELQREMKKSLMDLANDACQLLSGERYKEDPWLWDLEWDLQEFKQKKAKKVKKEPATASKLPIEGAGAPGDPMDQEDLGPCSEEEEFQQDVMARACLQKLKGTTELLPKRPQHLPGHPGWYRKLCPRLDDPAWTPGPSLLSLQMRVTPKLMALTWDGFPLHYSERHGWGYLVPGRRDNLAKLPTGTTLESAGVVCPYRAIESLYRKHCLEQGKQQLMPQEAGLAEEFLLTDNSAIWQTVEELDYLEVEAEAKMENLRAAVPGQPLALTARGGPKDTQPSYHHGNGPYNDVDIPGCWFFKLPHKDGNSCNVGSPFAKDFLPKMEDGTLQAGPGGASGPRALEINKMISFWRNAHKRISSQMVVWLPRSALPRAVIRHPDYDEEGLYGAILPQVVTAGTITRRAVEPTWLTASNARPDRVGSELKAMVQAPPGYTLVGADVDSQELWIAAVLGDAHFAGMHGCTAFGWMTLQGRKSRGTDLHSKTATTVGISREHAKIFNYGRIYGAGQPFAERLLMQFNHRLTQQEAAEKAQQMYAATKGLRWYRLSDEGEWLVRELNLPVDRTEGGWISLQDLRKVQRETARKSQWKKWEVVAERAWKGGTESEMFNKLESIATSDIPRTPVLGCCISRALEPSAVQEEFMTSRVNWVVQSSAVDYLHLMLVAMKWLFEEFAIDGRFCISIHDEVRYLVREEDRYRAALALQITNLLTRCMFAYKLGLNDLPQSVAFFSAVDIDRCLRKEVTMDCKTPSNPTGMERRYGIPQGEALDIYQIIELTKGSLEKRSQPGP
B3: Mitochondrial single stranded DNA binding protein (mtSSB) (protein, UniProt Q04837 17-148)
chain: ESETTTSLVLERSLNRVHLLGRVGQDPVLRQVEGKNPVTIFSLATNEMWRSGDSEVYQLGDVSQKTTWHRISVFRPGLRDVAYQYVKKGSRIYLEGKIDYGEYMDKNNVRRQATTIIADNIIFLSDQTKEKE

Assays:
[1] = target: T1, TwinkleFLAG (mtDNA helicase Twinkle with a FLAG tag at its C-terminus); experiment: cross-linking + affinity purification with mass spectrometry; whole cell 1% formaldehyde cross-linking; method A: Triton X-100 lysis (50 mM Tris-HCl pH 7.4, 300 mM NaCl, 2 mM EDTA, 1% Triton X-100), sonication, FLAG resin, washes with 800 mM, 50 mM and 150 mM NaCl, 3xFLAG peptide elution; LTQ-FT (3 biological repeats) and Q Exactive (sample 2 in triplicate); enriched ≥2 fold by LFQ over TwinkleFLAG -XL and mtLucFLAG +XL
[2] = target: T1, TwinkleFLAG (mtDNA helicase Twinkle with a FLAG tag at its C-terminus); experiment: cross-linking + affinity purification with mass spectrometry; whole cell 1% formaldehyde cross-linking; method B (X-ChIP): RIPA lysis, sonication, RNAse A, DNAse I and Benzonase for 30 min at 37°C, FLAG resin, RIPA washes, 3xFLAG peptide elution; Q Exactive; enriched ≥2 fold by LFQ over TwinkleFLAG -XL and mtLucFLAG +XL; mtDNA-containing cells, levels also compared with ρ° cells
[3] = target: T2, TwinkleFLAG (mtDNA helicase Twinkle …); experiment: cross-linking + affinity purification with mass spectrometry; whole cell 1% formaldehyde cross-linking; method A: Triton X-100 lysis (50 mM Tris-HCl pH 7.4, 300 mM NaCl, 2 mM EDTA, 1% Triton X-100), sonication, FLAG resin, washes with 800 mM, 50 mM and 150 mM NaCl, 3xFLAG peptide elution; LTQ-FT (3 biological repeats) and Q Exactive (sample 2 in triplicate); enriched ≥2 fold by LFQ over TwinkleFLAG -XL and mtLucFLAG …; conditions: remark: other sources report otherwise

Row | Molecule | binding [1] | binding [2] | binding [3]
1 | POLRMT (from UniProt O00411 42-1230) (enzyme) | binds | binds | 
2 | B1 | binds |  | 
3 | B2 |  |  | binds
4 | B3 | binds |  | 
